According to the supplement of paper PMC11098740:
Some of the results follow. Single values are uncertain, as repeats are few or missing.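 Pooled together, 41 HAP1 clones carry intronic fluorescent tags on 61 cancer-associated proteins, and each clone is recognized by its imaging pattern. Measurements are benchmarked against DMSO-treated control wells. dBET6, a BRD4 degrader, served as the positive control.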 Where a SMILES comes first, the peptide text is derived from it. The star is where a group is joined. Cbz = O=C(OCc1ccccc1)*

Sequences of proteins named here, by UniProt entry; tags and fusion partners are left off.
UniProt O14980, whole entry: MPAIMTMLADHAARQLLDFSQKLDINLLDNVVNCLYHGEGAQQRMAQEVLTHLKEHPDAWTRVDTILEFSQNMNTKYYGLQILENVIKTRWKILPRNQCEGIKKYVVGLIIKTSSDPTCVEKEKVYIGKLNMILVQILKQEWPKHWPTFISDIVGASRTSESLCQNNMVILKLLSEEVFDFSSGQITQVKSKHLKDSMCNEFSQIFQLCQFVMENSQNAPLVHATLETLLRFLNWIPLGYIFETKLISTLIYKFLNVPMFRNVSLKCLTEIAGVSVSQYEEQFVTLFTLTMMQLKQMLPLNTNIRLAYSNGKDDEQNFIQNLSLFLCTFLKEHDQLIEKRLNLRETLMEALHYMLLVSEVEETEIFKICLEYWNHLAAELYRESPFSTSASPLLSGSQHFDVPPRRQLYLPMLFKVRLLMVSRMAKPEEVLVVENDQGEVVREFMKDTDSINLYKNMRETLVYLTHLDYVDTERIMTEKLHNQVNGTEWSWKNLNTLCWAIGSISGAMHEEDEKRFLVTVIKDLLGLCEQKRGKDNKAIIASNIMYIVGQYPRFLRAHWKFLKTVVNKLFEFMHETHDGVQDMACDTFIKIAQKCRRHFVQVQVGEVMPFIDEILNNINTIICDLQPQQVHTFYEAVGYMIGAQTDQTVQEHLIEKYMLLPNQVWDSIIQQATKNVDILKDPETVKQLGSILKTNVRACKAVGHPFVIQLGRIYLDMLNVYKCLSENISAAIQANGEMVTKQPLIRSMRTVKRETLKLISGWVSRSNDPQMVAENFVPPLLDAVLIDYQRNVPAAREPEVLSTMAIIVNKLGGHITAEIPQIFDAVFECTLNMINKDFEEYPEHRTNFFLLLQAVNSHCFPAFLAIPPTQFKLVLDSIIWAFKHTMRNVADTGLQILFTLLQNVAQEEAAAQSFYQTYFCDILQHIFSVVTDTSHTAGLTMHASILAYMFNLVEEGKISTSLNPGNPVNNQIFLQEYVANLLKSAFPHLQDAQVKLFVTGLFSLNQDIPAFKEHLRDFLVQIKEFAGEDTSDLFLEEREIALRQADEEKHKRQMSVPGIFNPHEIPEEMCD

What was measured:
[1] = biological target: XPO1 (intron 15 mScarlet tag, HAP1) (UniProt O14980); experiment: XPO1 fluorescence intensity change vs DMSO (log2 fold change); higher = more XPO1 protein; conditions: 6 h
[2] = biological target: BRD4 (intron 10 mScarlet tag, HAP1) (UniProt O60885); experiment: BRD4 median nuclear fluorescence intensity change vs DMSO (log2 fold change); higher = more BRD4 protein; conditions: 6 h

SMILES | XPO1 fluorescence intensity change (log2) [1] | BRD4 median nuclear fluorescence intensity change (log2) [2]
O=C(Nc1ccncc1)c1ccc(SC(F)(F)F)cc1 (1 µM) | 0.0453 | 0.00107
CN(Cc1ccc(-c2ccc(Cl)cc2)o1)C(=O)Cn1c(=O)oc2ccccc21 (10 µM) | -0.358 | 0.00294
Nc1nccnc1C(=O)Nc1ccc(SC2CCCC2)cc1 (1 µM) | -0.091 | -0.0467
Cn1c(=O)n(C)c2cc(NC(=O)c3ccc4cc[nH]c4c3)ccc21 (10 µM) | 0.057 | 0.105
CC(C)n1nc(-c2ccc3oc(N)nc3c2)c2c(N)ncnc21 (0.12345679 µM) | -0.00628 | -0.0783
COc1ccc2c(c1)CCCN2C(=O)c1ccccc1 (10 µM) | -0.193 | -0.0151
CCc1cc(-c2[nH]ncc2-c2ccc3c(c2)OCCO3)c(O)cc1OC (10 µM) | -0.053 | -0.0813
N#Cc1c(NC(=O)CCCl)sc2c1CCCC2 (10 µM) | -0.0586 | 0.00312
CC(C)c1cc(NC(=O)CCCn2c(=O)oc3ccccc32)n[nH]1 (10 µM) | -0.0283 | 0.356
COC(=O)C1=C(C)N(c2ccc3c(c2)OCCO3)C(=S)NC1c1ccc(F)cc1 (configuration not stated) (10 µM) | -0.013 | 0.0188
COc1cc(C)c(NC(=O)c2ccc(SCc3cn4ccccc4n3)cc2)cc1OC (10 µM) | -0.104 | 0.0606
CCOc1ccc(CCNC(=O)c2ccc(OC)c(F)c2)cc1OCC (10 µM) | -0.0084 | -0.0924
ClCc1nc(Cl)c2cc(-c3ccccc3)oc2n1 (10 µM) | 0.0109 | 0.0175
c1ccc2c(-c3nc4ccccc4[nH]3)cccc2c1 (0.1 µM) | 0.00527 | -0.0982
CCOC(=O)C1=C(CCl)NC(=O)NC1c1ccccc1OC(F)F (configuration not stated) (10 µM) | -0.0551 | 0.0225
CC(O)CNCc1c2ccccc2c(Cl)c2ccccc12 (configuration not stated) (1 µM) | 0.108 | 0.064
CCOc1c(Cl)cc(C(=O)Nc2ccc(-c3nccs3)cc2)cc1OC (1 µM) | -0.0201 | 0.0816
O=C(CN1CCN(c2nc(N3CCCC3)nc(N3CCCC3)n2)CC1)NC1CC1 (10 µM) | -0.0774 | 0.0777
CC(C)(Oc1ccc(Cl)cc1)C(=O)Nc1nc(-c2ccccn2)cs1 (10 µM) | 0.0415 | -0.00947
O=C(Nc1cccc(CN2CCCC2=O)c1)c1ccc(-c2ccccc2)cc1 (10 µM) | -0.0878 | 0.0736
Cc1ccc(C)c(-n2ccnc2SCC(=O)Nc2cc(C)no2)c1 (10 µM) | -0.13 | -0.0425
Cc1c(Br)c2ccccc2n1CC(=O)Nc1ccn(C)n1 (10 µM) | -0.122 | -0.0555
COc1ccc(C)cc1C(C)Nc1ncnc2ccsc12 (configuration not stated) (10 µM) | -0.0344 | 0.0861
CCc1cccc(NC(=O)CSc2nc3ccccc3c(=O)n2C(C)C)c1 (1 µM) | -0.107 | 0.215

SMILES | XPO1 fluorescence intensity change (log2) [1] | BRD4 median nuclear fluorescence intensity change (log2) [2]
Cc1noc(-c2ccccc2NC(=O)c2ccccc2Br)n1 (10 µM) | 0.00377 | 0.0283
COCCCN1C(=O)C(=O)c2cc(Br)ccc21 (10 µM) | 0.0332 | 0.0653
COc1ccc(CCNC(=O)c2cc3c(F)cccc3s2)cc1OC (10 µM) | -0.279 | -0.17
COc1ccc(NC(=O)c2ccc(CCl)cc2)cc1 (0.1 µM) | -0.114 | -0.0273
Cc1cc(N2CCN(c3ccc(Br)cn3)CC2)nc(C(C)C)n1 (10 µM) | 0.026 | 0.0647
COC(=O)c1c(NC(=O)CCCl)sc2c1CCCC2 (10 µM) | -0.228 | 0.201
Cc1cc(Nc2ccc3[nH]c(C)cc3c2)nc(C)n1 (10 µM) | -0.063 | 0.0425
CC(C)C[C@@H](C=O)NC(=O)[C@H](CC(C)C)NC(=O)[C@H](CC(C)C)NC(=O)OCc1ccccc1 (10 µM) (Cbz-Leu-Leu-Leu-aldehyde) | -0.082 | -0.168
Cc1cccc(C)c1OCC(O)CNc1ncnc2sccc12 (configuration not stated) (10 µM) | -0.16 | -0.044
CCc1ncc(C(=O)Nc2nc(-c3ccccn3)cs2)s1 (10 µM) | -0.139 | 0.107
CC(C)c1ccc2nc(-c3ccccn3)[nH]c(=O)c2c1 (10 µM) | -0.212 | 0.0429
CC[C@H](C)n1cc(C)c2c(C(=O)NCc3c(C)cc(C)[nH]c3=O)cc(-c3ccc(N4CCNCC4)nc3)cc21 (10 µM) | 0.0144 | 0.0874
Cc1nn(-c2ccc(C(=O)NCc3cccnc3)cc2)c(C)c1Cl (1 µM) | 0.0251 | 0.117
O=C(/C=C/c1ccc(F)c(F)c1)c1ccc(O)c(CCCl)c1 (10 µM) | -0.189 | -0.057
COc1cc(/C=C/C(=O)c2ccc(O)c(CCCl)c2)cc(OC)c1 (10 µM) | -0.766 | -0.0663
COc1ccc(CN(C)c2nc(C(F)(F)F)nc3ccccc23)cc1OC (1 µM) | -0.104 | -0.216
O=[N+]([O-])c1ccc2c(c1)nc(CCl)n2-c1ccc(F)cc1 (10 µM) | 0.151 | 0.0646
FC(F)(F)c1ccc(N2CCCN(c3ncnc4ccccc34)CC2)nc1 (10 µM) | -0.00484 | 0.00866
COc1ccc(S(=O)(=O)Nc2ccc(-c3ccccc3)cc2)c(C)c1C (10 µM) | 0.115 | 0.0951
N#CC(C#N)=C1C=CC=CN1/C(=C/c1ccc(Cl)cc1)C(=O)c1cccs1 (10 µM) | -0.00391 | 0.0267
Cn1cc(CC2CCN(C(=O)NCCOc3cccnc3)C2)cn1 (configuration not stated) (1 µM) | 0.0593 | -0.0717
Cc1ccc2c(c1)c(=O)n(C)c1nnc(CCl)n21 (10 µM) | -0.0698 | -0.0659
Cc1cccc(C)c1CNc1cc(C(N)=O)ccc1CN(C)C (1 µM) | -0.0263 | -0.0281
COc1ccc(-c2noc(CCl)n2)cc1OC (0.1 µM) | -0.136 | 0.056

SMILES | XPO1 fluorescence intensity change (log2) [1] | BRD4 median nuclear fluorescence intensity change (log2) [2]
CCN(C)CC1CCN(c2nc(OC)nc(N3CCCCCC3)n2)C1 (configuration not stated) (0.1 µM) | -0.0255 | 0.00597
CCCn1c(CCl)nc2cc(S(=O)(=O)N3CCOCC3)ccc21 (10 µM) | 0.0146 | 0.0948
N=c1n(CCOc2ccccc2)c2ccccc2n1Cc1ccccc1F (10 µM) | 0.0243 | 0.178
COc1ccc(C2NC(=O)c3ccc(Cl)cc3N2)c(OC)c1OC (configuration not stated) (10 µM) | -0.21 | -0.00939
N#CC1=C(N)Oc2cc(N)ccc2C1C1CCCCC1 (configuration not stated) (10 µM) | 0.075 | 0.105
O=C(Nc1nc(-c2ccccn2)cs1)c1ccc(S(=O)(=O)N2CCCc3ccccc32)cc1 (10 µM) | -0.0398 | 0.0685
CCOC(=O)C1=C(CCl)NC(=O)NC1c1ccc(C)o1 (configuration not stated) (10 µM) | -0.245 | -0.0187
CC(C)(C)c1ccc(OCC(=O)Nc2ccccc2N2CCOCC2)cc1 (10 µM) | -0.132 | -0.101
CCc1ccc(C(=O)Nc2sccc2C(N)=O)cc1 (10 µM) | -0.11 | 0.00864
Cc1cnc(NC(=O)Cc2ccc(-n3cccc3)cc2)s1 (1 µM) | -0.0529 | 0.0664
Cc1noc(C)c1COc1ccc(C(=O)Nc2ccc(OC(F)F)cc2)cc1 (10 µM) | 0.111 | 0.0692
O=C(NCc1cccnc1)c1ccc(/C=C/c2ccc3ccccc3n2)cc1 (10 µM) | 0.00928 | -0.0566
Cn1cccc1/C=C(\C(=O)c1ccccc1)N1C=CC=CC1=C(C#N)C#N (10 µM) | -0.0833 | -0.0106
Nc1nn2cc(-c3ccccc3)nc2c2ccccc12 (10 µM) | 0.0855 | -0.0214
CC(C)CC(=O)Nc1ccc(NC(=O)c2ccc(CSC(F)F)o2)cc1 (10 µM) | 0.0738 | 0.0401
Clc1cc2c(c3ncccc13)OCN(Cc1ccccc1)C2 (10 µM) | -0.252 | -0.00808
O=C(Nc1cccnc1N1CCCC1)c1csc(-c2ccsc2)n1 (10 µM) | -0.121 | -0.0388
O=C(NCC(c1cccs1)N1CCOCC1)c1cc(Cl)ccc1F (configuration not stated) (10 µM) | -0.134 | -0.00299
COc1ccccc1CCC(=O)Nc1ccc(Br)cn1 (10 µM) | 0.217 | 0.0286
CCN(CCN(C)C)C(=O)CNCc1cc(C(=O)O)ccn1 (20 µM) | -0.0387 | 0.0907
CN(CCOc1ccccc1F)C(=O)c1cc2c(nc3sccn32)s1 (10 µM) | 0.165 | 0.00964
COc1ccc(CC(=O)NCc2ccc(F)cc2)cc1F (10 µM) | 0.186 | 0.0712
N#CC1=C(N)Oc2c(ccc3cccnc23)C1c1ccccc1 (configuration not stated) (0.1 µM) | -0.144 | 0.083

3 compounds picked at random from those above, as already listed:
SMILES | XPO1 fluorescence intensity change (log2) [1] | BRD4 median nuclear fluorescence intensity change (log2) [2]
CN(CCOc1ccccc1F)C(=O)c1cc2c(nc3sccn32)s1 (10 µM) | 0.165 | 0.00964
N=c1n(CCOc2ccccc2)c2ccccc2n1Cc1ccccc1F (10 µM) | 0.0243 | 0.178
Cc1cnc(NC(=O)Cc2ccc(-n3cccc3)cc2)s1 (1 µM) | -0.0529 | 0.0664
